These results are taken from PMC4860965, “A novel role for the tumour suppressor Nitrilase1 modulating the Wnt/β-catenin signalling pathway” (Cell Discovery, 2016).

The chains behind the UniProt entries cited, without tags or fusion partners.
UniProt Q9UJU2: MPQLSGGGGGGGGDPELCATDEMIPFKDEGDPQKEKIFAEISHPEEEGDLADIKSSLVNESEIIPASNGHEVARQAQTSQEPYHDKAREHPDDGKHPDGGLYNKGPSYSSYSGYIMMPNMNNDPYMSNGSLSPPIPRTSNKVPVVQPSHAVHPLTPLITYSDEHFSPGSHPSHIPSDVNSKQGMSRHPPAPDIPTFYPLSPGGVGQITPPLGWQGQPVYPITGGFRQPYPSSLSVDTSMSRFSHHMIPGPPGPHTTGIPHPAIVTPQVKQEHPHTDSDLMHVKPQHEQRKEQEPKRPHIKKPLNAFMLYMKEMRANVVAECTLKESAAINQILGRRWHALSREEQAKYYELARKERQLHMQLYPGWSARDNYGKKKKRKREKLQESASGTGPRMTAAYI
UniProt P35222: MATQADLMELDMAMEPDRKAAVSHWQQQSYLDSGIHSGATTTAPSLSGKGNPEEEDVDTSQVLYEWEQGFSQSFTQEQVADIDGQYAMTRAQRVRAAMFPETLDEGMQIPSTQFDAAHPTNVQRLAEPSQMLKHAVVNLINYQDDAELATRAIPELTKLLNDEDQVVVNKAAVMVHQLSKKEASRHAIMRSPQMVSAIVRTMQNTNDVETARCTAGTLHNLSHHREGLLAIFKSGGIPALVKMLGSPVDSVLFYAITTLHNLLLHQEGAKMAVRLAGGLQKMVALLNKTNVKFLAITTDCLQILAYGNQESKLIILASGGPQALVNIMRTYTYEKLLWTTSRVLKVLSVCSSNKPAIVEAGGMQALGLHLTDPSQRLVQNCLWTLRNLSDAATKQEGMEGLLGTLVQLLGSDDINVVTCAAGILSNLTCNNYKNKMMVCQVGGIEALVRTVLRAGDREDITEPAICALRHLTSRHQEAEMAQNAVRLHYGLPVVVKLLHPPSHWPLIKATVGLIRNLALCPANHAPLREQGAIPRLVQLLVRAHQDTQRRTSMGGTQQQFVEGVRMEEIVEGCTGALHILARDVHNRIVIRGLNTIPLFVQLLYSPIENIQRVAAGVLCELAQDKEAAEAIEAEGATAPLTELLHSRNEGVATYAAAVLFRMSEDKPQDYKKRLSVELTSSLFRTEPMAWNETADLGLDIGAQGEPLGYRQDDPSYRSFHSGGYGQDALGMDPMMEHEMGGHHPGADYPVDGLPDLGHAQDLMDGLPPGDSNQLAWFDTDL

No constants are given. Whether binding was seen depends on the method and setting. For some of these results: Binding seen in cells or lysates may run through a third protein. Some binding calls cover weakened binding; strength is not graded here. For some of these results: Where a sequence is shown, tags or fusion partners need not be part of it.

For one test, the target named is GST-LEF-1 (UniProt Q9UJU2). The test is described as follows: pull-down; GST-LEF-1/β-catenin-His6 complex preformed and isolated on glutathione-agarose beads, washed, incubated with increasing amounts of MBP-hNit1, washed again; beads and supernatant blotted; both purified.
Test [1] addresses T1, endogenous hNit1 (human nitrilase1) (human (endogenous in HeLa, HEK-293, HCT116, MCF-7)) (UniProt Q86X76).
T1 sequence: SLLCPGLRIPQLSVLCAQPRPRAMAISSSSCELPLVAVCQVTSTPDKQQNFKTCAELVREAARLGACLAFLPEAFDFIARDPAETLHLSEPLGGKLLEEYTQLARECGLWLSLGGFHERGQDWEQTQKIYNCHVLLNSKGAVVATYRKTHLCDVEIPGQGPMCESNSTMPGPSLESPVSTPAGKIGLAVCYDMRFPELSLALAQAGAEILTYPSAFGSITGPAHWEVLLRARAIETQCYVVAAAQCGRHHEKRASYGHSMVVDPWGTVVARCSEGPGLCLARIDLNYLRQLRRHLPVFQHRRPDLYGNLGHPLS
In words: co-IP; endogenous proteins, polyclonal anti-Nit1 antibody, HEK-293, HeLa, HCT116 and MCF-7 cells; data not shown.

Test [2] addresses T1, endogenous hNit1 (human nitrilase1) (human (endogenous in HeLa, HEK-293, HCT116, MCF-7)). The test is described as follows: co-IP; endogenous proteins, HeLa and HEK-293 lysates (500 μg protein), monoclonal anti-nitrilase1 (1C3), 2 h at 4 °C, Protein A Sepharose; western blot. For orientation: In western blotting, separated proteins are transferred to a membrane and probed.
The target is the same in test [3]. The test is described as follows: proximity ligation; Duolink PLA in MCF-7 cells with monoclonal anti-Nit1 (1C3) and polyclonal anti-β-catenin (M14M); shNit1 knockdown reduced the signals.
Test [4] deals with T2, Armadillo-3xFLAG (Drosophila) (UniProt P18824).
T2 sequence: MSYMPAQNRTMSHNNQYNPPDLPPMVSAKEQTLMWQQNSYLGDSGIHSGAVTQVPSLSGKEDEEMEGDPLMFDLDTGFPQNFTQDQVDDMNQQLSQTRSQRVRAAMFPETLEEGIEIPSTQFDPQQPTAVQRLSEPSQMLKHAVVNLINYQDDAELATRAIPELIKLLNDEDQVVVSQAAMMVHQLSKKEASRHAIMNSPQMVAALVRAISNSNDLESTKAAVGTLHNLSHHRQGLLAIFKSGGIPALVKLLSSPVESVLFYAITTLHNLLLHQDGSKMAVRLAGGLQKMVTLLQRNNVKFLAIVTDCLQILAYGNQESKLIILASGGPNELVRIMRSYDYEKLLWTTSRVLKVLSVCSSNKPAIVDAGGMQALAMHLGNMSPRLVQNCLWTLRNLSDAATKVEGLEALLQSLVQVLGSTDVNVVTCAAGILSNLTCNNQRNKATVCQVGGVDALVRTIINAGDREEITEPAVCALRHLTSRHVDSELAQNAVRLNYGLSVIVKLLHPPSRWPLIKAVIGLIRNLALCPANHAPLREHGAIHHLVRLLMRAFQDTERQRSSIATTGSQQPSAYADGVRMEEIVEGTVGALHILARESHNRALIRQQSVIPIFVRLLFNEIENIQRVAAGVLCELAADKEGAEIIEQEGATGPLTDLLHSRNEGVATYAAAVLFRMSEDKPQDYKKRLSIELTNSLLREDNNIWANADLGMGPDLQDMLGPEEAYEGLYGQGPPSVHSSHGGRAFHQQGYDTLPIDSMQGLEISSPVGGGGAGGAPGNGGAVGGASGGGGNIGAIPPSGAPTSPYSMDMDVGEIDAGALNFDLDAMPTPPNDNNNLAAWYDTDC
The test is described as follows: co-IP; HEK-293 cells transiently transfected, lysed after 48 h (20 mM imidazole pH 8.0, 150 mM NaCl, 2 mM MgCl2, 300 mM sucrose, 0.25% Triton X-100); immunoprecipitation with anti-FLAG M2 pre-bound to Protein A Sepharose; western blot.

The target in a further test is β-catenin-FLAG (UniProt P35222). Described as above.
Test [5] addresses T3, GST-Armadillo (Drosophila) (UniProt P18824).
T3 sequence: T2 sequence
In words: pull-down; 4 μg GST or GST fusion protein with 5 μg MBP fusion protein, 150 mM NaCl, 20 mM imidazole or HEPES pH 8.0, 2 mM MgCl2, 300 mM sucrose, 0.25% Triton X-100, 20 min at 4 °C; glutathione-agarose beads; western blot with anti-MBP; both purified.

On to “β-catenin-His6 (from UniProt P35222 1-781)”, for which the binding result with GST-LEF-1 is recorded as “binds”.
For the molecule “endogenous β-catenin (from UniProt P35222 1-781)”, the binding entry in test [1], in test [2] and in test [3] was “binds” in each case.

B1: dNitFhit-myc6 (Drosophila NitFhit fusion protein, myc6-tagged) (protein, UniProt O76464 1-460)
chain: MSTLVNTTRRSIVIAIHQQLRRMSVQKRKDQSATIAVGQMRSTSDKAANLSQVIELVDRAKSQNACMLFLPECCDFVGESRTQTIELSEGLDGELMAQYRELAKCNKIWISLGGVHERNDQKIFNAHVLLNEKGELAAVYRKLHMFDVTTKEVRLRESDTVTPGYCLERPVSTPVGQIGLQICYDLRFAEPAVLLRKLGANLLTYPSAFTYATGKAHWEILLRARAIETQCFVVAAAQIGWHNQKRQSWGHSMIVSPWGNVLADCSEQELDIGTAEVDLSVLQSLYQTMPCFEHRRNDIYALTAYNLRSKEPTQDRPFATNIVDKRTIFYESEHCFAFTNLRCVVKGHVLVSTKRVTPRLCGLDCAEMADMFTTVCLVQRLLEKIYQTTSATVTVQDGAQAGQTVPHVHFHIMPRRLGDFGHNDQIYVKLDERAEEKPPRTIEERIEEAQIYRKFLTDIS
On to B1, for which the binding result (in test [4]; with β-catenin-FLAG) was “binds” each time.

B2: MBP-dNitFhit (natural protein, D. melanogaster, UniProt O76464 1-460, looked up)
chain: B1 chain
notes: Drosophila melanogaster NitFhit, amplified from the intronless genomic DNA; source: E. coli XL1 blue or BL21-RE4, purified (amylose resin)
On to B2, for which, in test [5], the binding entry is “binds”.
